Taken from: PubChem BioAssay AID720710 (VTT Finland, 2013)
Here is a random part of about 1,380 reagents tested. 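One array per condition without replicates; hydroxyurea arrays received 2 mM for 16 h plus 3 h recovery.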 Reagents against one gene are numbered here. Not all columns of the deposit are shown. Reagent sequences are not shown.

Screen: 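Genes whose loss lowers DNA synthesis when an oncogene drives replication stress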 (primary screen)
System: human U-2 OS bone cancer cells, parental and a cyclin E (CCNE1) overexpressing line
Knock-down reagent: single siRNA against human genes, 1 µM siRNA in the printed spot mix
Duration: 67 h
Conditions: half the arrays: hydroxyurea 2 mM for 16 h, then 3 h recovery; other arrays untreated
Measured: 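EdU click signal imaged per DAPI-stained nucleus at 67 h; each spot divided by its subgrid median, then z-scored relative to non-targeting control spots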
Direction: EdU z-score, cyclin E line, hydroxyurea and EdU z-score, parental, hydroxyurea: higher = more DNA synthesis than non-targeting controls

RAD52 (RAD52 DNA repair protein) #1: EdU z-score, cyclin E line, hydroxyurea = -0.969; EdU z-score, parental, hydroxyurea = -0.196
RAD52 (RAD52 DNA repair protein) #2: EdU z-score, cyclin E line, hydroxyurea = 0.378; EdU z-score, parental, hydroxyurea = 1.81
H4C14 (H4 clustered histone 14) #1: EdU z-score, cyclin E line, hydroxyurea = -1.55; EdU z-score, parental, hydroxyurea = -0.738
H4C14 (H4 clustered histone 14) #2: EdU z-score, cyclin E line, hydroxyurea = -0.009; EdU z-score, parental, hydroxyurea = -0.144
FAN1 (FANCD2 and FANCI associated nuclease 1) #1: EdU z-score, cyclin E line, hydroxyurea = -0.571; EdU z-score, parental, hydroxyurea = -1.36
FAN1 (FANCD2 and FANCI associated nuclease 1) #2: EdU z-score, cyclin E line, hydroxyurea = 0.689; EdU z-score, parental, hydroxyurea = 0.917
PPP2R1A (protein phosphatase 2 scaffold subunit Aalpha) #1: EdU z-score, cyclin E line, hydroxyurea = -1.77; EdU z-score, parental, hydroxyurea = -0.819
PPP2R1A (protein phosphatase 2 scaffold subunit Aalpha) #2: EdU z-score, cyclin E line, hydroxyurea = -1.31; EdU z-score, parental, hydroxyurea = 0.238
IRGQ (immunity related GTPase Q) #1: EdU z-score, cyclin E line, hydroxyurea = -0.163; EdU z-score, parental, hydroxyurea = -1.89
IRGQ (immunity related GTPase Q) #2: EdU z-score, cyclin E line, hydroxyurea = 0.378; EdU z-score, parental, hydroxyurea = 2.55
RBMS1 (RNA binding motif single stranded interacting protein 1) #1: EdU z-score, cyclin E line, hydroxyurea = -2.54; EdU z-score, parental, hydroxyurea = -3.32
RBMS1 (RNA binding motif single stranded interacting protein 1) #2: EdU z-score, cyclin E line, hydroxyurea = -0.429; EdU z-score, parental, hydroxyurea = 4.07
PARP1 (poly(ADP-ribose) polymerase 1) #1: EdU z-score, cyclin E line, hydroxyurea = -0.906; EdU z-score, parental, hydroxyurea = 0.0416
PARP1 (poly(ADP-ribose) polymerase 1) #2: EdU z-score, cyclin E line, hydroxyurea = -0.114; EdU z-score, parental, hydroxyurea = 2.7
LOC648152 #1: EdU z-score, cyclin E line, hydroxyurea = -0.219; EdU z-score, parental, hydroxyurea = -1.83
LOC648152 #2: EdU z-score, cyclin E line, hydroxyurea = -0.155; EdU z-score, parental, hydroxyurea = 1.14
XPA (XPA, DNA damage recognition and repair factor) #1: EdU z-score, cyclin E line, hydroxyurea = -0.654; EdU z-score, parental, hydroxyurea = 1.09
XPA (XPA, DNA damage recognition and repair factor) #2: EdU z-score, cyclin E line, hydroxyurea = -0.582; EdU z-score, parental, hydroxyurea = 1.17

4 consecutive reagents from above:
PARP1 (poly(ADP-ribose) polymerase 1) #2: EdU z-score, cyclin E line, hydroxyurea = -0.114; EdU z-score, parental, hydroxyurea = 2.7
LOC648152 #1: EdU z-score, cyclin E line, hydroxyurea = -0.219; EdU z-score, parental, hydroxyurea = -1.83
LOC648152 #2: EdU z-score, cyclin E line, hydroxyurea = -0.155; EdU z-score, parental, hydroxyurea = 1.14
XPA (XPA, DNA damage recognition and repair factor) #1: EdU z-score, cyclin E line, hydroxyurea = -0.654; EdU z-score, parental, hydroxyurea = 1.09

Next records follow:
POLH (DNA polymerase eta) #1: EdU z-score, cyclin E line, hydroxyurea = -0.43; EdU z-score, parental, hydroxyurea = -1.46
POLH (DNA polymerase eta) #2: EdU z-score, cyclin E line, hydroxyurea = -0.263; EdU z-score, parental, hydroxyurea = 2.87
H2BC3 (H2B clustered histone 3) #1: EdU z-score, cyclin E line, hydroxyurea = -1.93; EdU z-score, parental, hydroxyurea = -1.31
H2BC3 (H2B clustered histone 3) #2: EdU z-score, cyclin E line, hydroxyurea = 0.452; EdU z-score, parental, hydroxyurea = 0.836
H4C1 (H4 clustered histone 1) #1: EdU z-score, cyclin E line, hydroxyurea = -2.08; EdU z-score, parental, hydroxyurea = -7.07
H4C1 (H4 clustered histone 1) #2: EdU z-score, cyclin E line, hydroxyurea = 0.467; EdU z-score, parental, hydroxyurea = -1.7
RAD9A (RAD9 checkpoint clamp component A) #1: EdU z-score, cyclin E line, hydroxyurea = -0.29; EdU z-score, parental, hydroxyurea = -2.64
RAD9A (RAD9 checkpoint clamp component A) #2: EdU z-score, cyclin E line, hydroxyurea = 1.01; EdU z-score, parental, hydroxyurea = 0.534
HDAC5 (histone deacetylase 5) #1: EdU z-score, cyclin E line, hydroxyurea = -1.62; EdU z-score, parental, hydroxyurea = -4.15
HDAC5 (histone deacetylase 5) #2: EdU z-score, cyclin E line, hydroxyurea = 1.71; EdU z-score, parental, hydroxyurea = 0.633
CIDEB (cell death inducing DFFA like effector b) #1: EdU z-score, cyclin E line, hydroxyurea = -1.14; EdU z-score, parental, hydroxyurea = -0.463
CIDEB (cell death inducing DFFA like effector b) #2: EdU z-score, cyclin E line, hydroxyurea = 2.63; EdU z-score, parental, hydroxyurea = 1.23
TP53BP1 (tumor protein p53 binding protein 1) #1: EdU z-score, cyclin E line, hydroxyurea = 0.787; EdU z-score, parental, hydroxyurea = -0.94
TP53BP1 (tumor protein p53 binding protein 1) #2: EdU z-score, cyclin E line, hydroxyurea = 0.946; EdU z-score, parental, hydroxyurea = 0.548
RAD18 (RAD18 E3 ubiquitin protein ligase) #1: EdU z-score, cyclin E line, hydroxyurea = -1.36; EdU z-score, parental, hydroxyurea = 0.0185
RAD18 (RAD18 E3 ubiquitin protein ligase) #2: EdU z-score, cyclin E line, hydroxyurea = 0.721; EdU z-score, parental, hydroxyurea = 1.6
APTX (aprataxin) #1: EdU z-score, cyclin E line, hydroxyurea = -0.0589; EdU z-score, parental, hydroxyurea = 0.922
APTX (aprataxin) #2: EdU z-score, cyclin E line, hydroxyurea = 0.975; EdU z-score, parental, hydroxyurea = 2.26
POLG2 (DNA polymerase gamma 2, accessory subunit) #1: EdU z-score, cyclin E line, hydroxyurea = -1.57; EdU z-score, parental, hydroxyurea = -0.28
POLG2 (DNA polymerase gamma 2, accessory subunit) #2: EdU z-score, cyclin E line, hydroxyurea = -0.771; EdU z-score, parental, hydroxyurea = 2.46
ANKRD17 (ankyrin repeat domain 17) #1: EdU z-score, cyclin E line, hydroxyurea = 0.22; EdU z-score, parental, hydroxyurea = -0.818
ANKRD17 (ankyrin repeat domain 17) #2: EdU z-score, cyclin E line, hydroxyurea = 1.53; EdU z-score, parental, hydroxyurea = 0.44
